The target in the assay is T1, His-AtSAT5 (Arabidopsis thaliana) (UniProt Q42538).
T1 sequence: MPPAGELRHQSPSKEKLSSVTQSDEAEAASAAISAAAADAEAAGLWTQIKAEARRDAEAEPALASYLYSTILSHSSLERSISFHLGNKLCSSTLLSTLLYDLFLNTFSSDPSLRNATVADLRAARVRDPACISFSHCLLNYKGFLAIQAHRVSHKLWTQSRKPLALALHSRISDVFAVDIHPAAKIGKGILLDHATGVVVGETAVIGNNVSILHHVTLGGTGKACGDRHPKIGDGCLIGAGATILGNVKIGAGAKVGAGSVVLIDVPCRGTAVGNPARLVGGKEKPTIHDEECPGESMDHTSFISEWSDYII
The assay is described as follows: pull-down; His-AtSAT5 held on a NiCl2 HiTrap Chelating column, washed with Buffer W (50 mM Tris-HCl pH 8.0, 250 mM NaCl, 80 mM imidazol) and with 10 mM OAS; crude extract of untagged OAS-TL loaded; elution with Buffer W + 10 mM OAS, then 400 mM imidazol; SDS-PAGE, Coomassie; only the target ….

These are yes or no findings as the source states them, for the method shown. Binding seen in cells or lysates may run through a third protein. Binding calls can cover weak binding; strength is not graded here. Where a sequence is shown, tags or fusion partners need not be part of it.

In the case of “mature OsASTOL1^S189N protein (untagged) (rice (Oryza sativa cv. Kasalath)) (enzyme)”, the binding entry was “binds”.
